According to PMC11904178:
Substitutions are numbered along the chain they refer to. In names and notes the source's numbering stands. These are yes or no findings as the source states them, for the method shown. In cells and extracts the contact can be indirect. Some entries that bind do so weakly or less than the wild type. Where a sequence is shown, tags or fusion partners need not be part of it.

T1: CPSF3-Myc (cleavage and polyadenylation specific factor 3) (human) (UniProt Q9UKF6)
T1 sequence: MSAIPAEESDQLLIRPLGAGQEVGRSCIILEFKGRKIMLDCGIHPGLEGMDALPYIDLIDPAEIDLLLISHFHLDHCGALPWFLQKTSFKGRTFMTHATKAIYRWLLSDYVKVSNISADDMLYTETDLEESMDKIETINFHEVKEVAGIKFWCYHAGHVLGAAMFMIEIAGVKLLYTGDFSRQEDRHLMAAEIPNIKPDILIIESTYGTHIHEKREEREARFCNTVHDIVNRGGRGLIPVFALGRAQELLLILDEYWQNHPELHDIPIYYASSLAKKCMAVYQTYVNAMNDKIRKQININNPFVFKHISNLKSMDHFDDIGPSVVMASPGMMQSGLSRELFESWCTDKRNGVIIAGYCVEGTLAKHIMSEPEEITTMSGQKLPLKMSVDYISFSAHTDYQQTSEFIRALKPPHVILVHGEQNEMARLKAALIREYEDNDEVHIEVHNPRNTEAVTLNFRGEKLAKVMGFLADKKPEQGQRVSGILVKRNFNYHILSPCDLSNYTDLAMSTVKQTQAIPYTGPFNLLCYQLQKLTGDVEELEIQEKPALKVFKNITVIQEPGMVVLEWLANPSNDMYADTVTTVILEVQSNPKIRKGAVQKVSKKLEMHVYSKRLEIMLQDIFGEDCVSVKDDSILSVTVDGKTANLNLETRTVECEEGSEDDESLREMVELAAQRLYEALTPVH

B1: Flag-UBE3D (Ubiquitin protein ligase E3D), wild type (protein, UniProt Q7Z6J8 1-389)
chain: MAASAAETRVFLEVRGQLQSALLILGEPKEGGMPMNISIMPSSLQMKTPEGCTEIQLPAEVRLVPSSCRGLQFVVGDGLHLRLQTQAKLGTKLISMFNQSSQTQECCTFYCQSCGEVIIKDRKLLRVLPLPSENWGALVGEWCCHPDPFANKSLHPQENDCFIGDSFFLVNLRTSLWQQRPELSPVEMCCVSSDNHCKLEPKANTKVICKRCKVMLGETVSSETTKFYMTEIIIQSSERSFPIIPRSWFVQSVIAQCLVQLSSARSTFRFTIQGQDDKVYILLWLLNSDSLVIESLRNSKYIKKFPLLENTFKADSSSAWSAVKVLYQPCIKSRNEKLVSLWESDISVHPLTLPSATCLELLLILSKSNANLPSSLRRVNSFQVAFLKM
B2: Flag-UBE3D-N (1-187 a.a.) (domain or fragment, UniProt Q7Z6J8 1-187)
chain: MAASAAETRVFLEVRGQLQSALLILGEPKEGGMPMNISIMPSSLQMKTPEGCTEIQLPAEVRLVPSSCRGLQFVVGDGLHLRLQTQAKLGTKLISMFNQSSQTQECCTFYCQSCGEVIIKDRKLLRVLPLPSENWGALVGEWCCHPDPFANKSLHPQENDCFIGDSFFLVNLRTSLWQQRPELSPVE
B3: Flag-UBE3D-C (188-389 a.a.) (domain or fragment, UniProt Q7Z6J8 188-389)
chain: MCCVSSDNHCKLEPKANTKVICKRCKVMLGETVSSETTKFYMTEIIIQSSERSFPIIPRSWFVQSVIAQCLVQLSSARSTFRFTIQGQDDKVYILLWLLNSDSLVIESLRNSKYIKKFPLLENTFKADSSSAWSAVKVLYQPCIKSRNEKLVSLWESDISVHPLTLPSATCLELLLILSKSNANLPSSLRRVNSFQVAFLKM
B4: Flag-UBE3D-dm (T357A/C358S), dominant negative mutant of UBE3D (protein, UniProt Q7Z6J8 1-389)
chain: B1 chain with T357A, C358S

These binders were tested against T1, CPSF3-Myc (cleavage and polyadenylation specific factor 3) (human) (assay: co-IP; HEK 293T co-transfected with CPSF3-Myc and Flag-UBE3D or one of its mutants; 20 uM MG132 for 6 h before harvest; lysis in co-IP RIPA (50 mM Tris-HCl pH 7.5, 1% NP40, 0.03% SDS, 1 mM EDTA, 150 mM NaCl); anti-Myc or anti-Flag antibody overnight at 4 °C, protein A+G agarose, immunoblot).

binding, binds:
B1, B2, B3, B4
